According to paper PMC5655547:
These are yes or no findings as the source states them, for the method shown.

Protein sequences, listed by entry. Tags and fused reporters are not part of them. Lines headed by an entry give the natural chain unless they say otherwise; changes in a name come on top.
UniProt P0CG48: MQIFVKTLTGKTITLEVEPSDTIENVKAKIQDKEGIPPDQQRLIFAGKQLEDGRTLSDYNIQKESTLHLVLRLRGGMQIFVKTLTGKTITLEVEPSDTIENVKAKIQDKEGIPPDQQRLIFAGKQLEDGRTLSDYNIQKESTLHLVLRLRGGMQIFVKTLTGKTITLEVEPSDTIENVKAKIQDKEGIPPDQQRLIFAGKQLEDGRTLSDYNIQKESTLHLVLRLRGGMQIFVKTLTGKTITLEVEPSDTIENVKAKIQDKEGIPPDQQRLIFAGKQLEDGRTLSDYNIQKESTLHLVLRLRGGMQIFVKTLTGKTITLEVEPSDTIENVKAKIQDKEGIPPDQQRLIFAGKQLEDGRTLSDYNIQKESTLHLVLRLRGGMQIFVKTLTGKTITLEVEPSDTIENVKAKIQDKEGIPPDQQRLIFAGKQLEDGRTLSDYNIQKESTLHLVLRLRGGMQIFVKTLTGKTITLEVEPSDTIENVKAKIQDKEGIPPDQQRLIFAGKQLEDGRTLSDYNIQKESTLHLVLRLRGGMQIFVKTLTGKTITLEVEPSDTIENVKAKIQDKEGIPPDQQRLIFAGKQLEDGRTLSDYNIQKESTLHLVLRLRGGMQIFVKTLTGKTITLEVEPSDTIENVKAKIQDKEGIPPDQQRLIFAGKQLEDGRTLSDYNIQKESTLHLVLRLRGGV

Molecular target: U-box of UBE4B (E4B, residues 1079-C), tag removed (human) (UniProt O95155)
Experiment: NMR titration; 1H-15N HSQC, chemical shift perturbations; 25 mM sodium phosphate, 100 mM NaCl, 5% D2O, 298 K, 600 MHz; both purified

binding: no binding
Substance: K48-diUb (from UniProt P0CG48 1-76; P0CG48 1-74)
